For 16 compounds, survivor count and T/C results are on record in PubChem BioAssay AID330 (DTP/NCI, 2004).

Structures are written as SMILES. The list shows only some results of the screen, not a fair sample: it is rich in T/C values a quarter to a half above the control, in often repeated tests (any T/C) and in doses without a T/C. Other doses and runs of a compound stand elsewhere. T/C: endpoint of the treated group in % of that of the vehicle group. Some entries give survivors of the animals treated and no T/C: the source files T/C as zero there, which appears to mark a toxic dose or a test without result, not a measured value. Some survivor counts are full or nearly so, which does not show that the dose was tolerated: the source hardly ever lists a survival T/C far under the control, and the zero likely stands for such cases as well. Counts of survivors are from the toxicity check (mostly the fifth day) where no day follows; animals may have died later. Schedule codes are those of the source, taken here to give the interval after Q, in days (D) or hours (H), and the number of doses after X. Some entries were tested several times; the values are given in rising order. For survival time, the PubChem record calls one and a half times the control and up active, and a quarter to a half above the control has no call in these data; cut-offs in other NCI protocols can differ.

This test relates to P388 leukemia ip, CD2F1 mice, survival T/C. Description: NCI In Vivo Anticancer Drug Screen. Data for tumor model P388 Leukemia (intraperitoneal) in CD2F1 (CDF1) mice. To be noted: T/C endpoint: median survival time, higher T/C = longer survival.
The mark [1] stands for this setting: dose: 200.0 mg/kg/injection, schedule: Q01DX005 (ip), vehicle: Klucel (hydroxypropylcellulose) (HPC).

With `OC1CC2c3ccccc3C1C1CCCCN21` (configuration not stated), the survivor count is listed as 2 of 5 (dose: 100.0 mg/kg/injection, schedule: Q04DX002 (ip), vehicle: saline); 0 of 5 (dose: 200.0 mg/kg/injection, schedule: Q04DX002 (ip), vehicle: saline); 0 of 5 (dose: 400.0 mg/kg/injection, schedule: Q04DX002 (ip), vehicle: saline).
Turning to `COc1ccc2c(N/N=C/c3ccc4c(c3)OCO4)cc(C)nc2c1`, the survivor count reads like this: (dose: 50.0 mg/kg/injection, schedule: Q01DX005 (ip), vehicle: Klucel (hydroxypropylcellulose) (HPC)) 3 of 6; (dose: 100.0 mg/kg/injection, schedule: Q01DX005 (ip), vehicle: Klucel (hydroxypropylcellulose) (HPC)) 0 of 6; under setting [1], 0 of 6.
Consider `O=S(=O)(Cc1cccs1)c1ncc(Br)cn1`, for which the survivor count under setting [1] is recorded as 0 of 6.
In the case of `Clc1nccc2c1ncn2[Te]n1cnc2c(Cl)nccc21`, the survivor count (dose: 50.0 mg/kg/injection, schedule: Q04DX002 (ip), vehicle: saline) is listed as 2 of 6.
For the compound `CCOC(=O)CCC(NC(=O)c1ccc(NS(=O)(=O)c2ccc(C)cc2)cc1)C(=O)OCC` (configuration not stated), the survivor count (dose: 25.0 mg/kg/injection, schedule: Q01DX009 (ip), vehicle: saline with Tween-80) is on record as 6 of 6.
In the case of `O=c1cn[nH]c(=O)[nH]1`, the survivor count (dose: 500.0 mg/kg/injection, schedule: Q01DX010 (ip), vehicle: saline) was 7 of 7.
With `NC(=S)c1ccc(N)cc1`, the survivor count (dose: 400.0 mg/kg/injection, schedule: Q04DX003 (ip), vehicle: Klucel (hydroxypropylcellulose) (HPC)) was 2 of 6.
In the case of `CCC/C=C/C=C/C(=O)OC1C(C)C2(O)C3C=C(C)C(=O)C3CC(COC(C)=O)=CC2C2C(C)(C)C12OC(=O)C(C)C` (configuration not stated), the T/C (dose: 4.0 mg/kg/injection, schedule: Q01DX005 (ip), vehicle: distilled water + Tween-80) was 138 and 143 % of control. For the same compound, the survivor count is 0 of 5 and 3 of 5 (dose: 8.0 mg/kg/injection, schedule: Q01DX005 (ip), vehicle: distilled water + Tween-80); 0 of 5 (dose: 8.0 mg/kg/injection, schedule: Q01DX005 (ip), vehicle: saline + alcohol).
Take `Cc1cc(O)c(C=O)c2c1C(=O)Oc1c(COC(=O)/C=C/C(=O)O)c(O)c(C(=O)O)c(C)c1O2`: the survivor count (dose: 200.0 mg/kg/injection, schedule: Q01DX009 (ip), vehicle: saline) was 2 of 3.
As for `COc1cc2ccc(CC(=S)N3CCOCC3)cc2cc1OC`, the survivor count (dose: 400.0 mg/kg/injection, schedule: Q01DX009 (ip), vehicle: saline with Tween-80) was 6 of 6.
In the case of `COc1cc([N+](=O)[O-])c(S(=O)(=O)O)cc1N=N/C(=N/Nc1cc(S(=O)(=O)O)c([N+](=O)[O-])cc1OC)C(=O)Nc1ccccc1`, the survivor count under setting [1] is 6 of 6.
Consider `CNc1c(NC)n(C)c(=O)n(C)c1=O`, for which the T/C (dose: 400.0 mg/kg/injection, schedule: Q01DX009 (ip), vehicle: saline) is 125 % of control.
With `COc1ccc(C2c3cc4c(cc3OC(N3CCCC3)C2C)OCO4)cc1` (configuration not stated), the survivor count is, setting by setting: (dose: 60.0 mg/kg/injection, schedule: Q01DX005 (ip), vehicle: saline with Tween-80) 6 of 6; (dose: 120.0 mg/kg/injection, schedule: Q01DX005 (ip), vehicle: saline with Tween-80) 6 of 6; (dose: 240.0 mg/kg/injection, schedule: Q01DX005 (ip), vehicle: saline with Tween-80) 5 of 6.
With `O=C(N/N=C\C12CC3CC(CC(C3)C1)C2)c1ccncc1`, the survivor count (dose: 200.0 mg/kg/injection, schedule: Q01DX009 (ip), vehicle: saline with Tween-80) was 6 of 6.
In the case of `ClC(Cl)CN(Cc1ccccc1)c1ncc[nH]1`, the survivor count is given as 2 of 6 (dose: 100.0 mg/kg/injection, schedule: Q01DX001 (ip), vehicle: saline with Tween-80); 0 of 6 (dose: 200.0 mg/kg/injection, schedule: Q01DX001 (ip), vehicle: saline with Tween-80); 0 of 6 (dose: 400.0 mg/kg/injection, schedule: Q01DX001 (ip), vehicle: saline with Tween-80).
`Cc1nnc(Cc2ccc([N+](=O)[O-])cc2)c2n[nH]c(C)c12`: the survivor count (dose: 200.0 mg/kg/injection, schedule: Q04DX002 (ip), vehicle: Klucel (hydroxypropylcellulose) (HPC)) is 6 of 6 and the survivor count (dose: 400.0 mg/kg/injection, schedule: Q04DX002 (ip), vehicle: Klucel (hydroxypropylcellulose) (HPC)) was 6 of 6.
